Assay results published in patent US8273855.
No constants are given. Whether binding was seen depends on the method and setting. For some assays here: Binding seen in cells or lysates may run through a third protein. Some results given as binding are weak or reduced against the parent protein; the word gives no strength. For some assays here: Where a sequence is shown, tags or fusion partners need not be part of it. Blank lines part the entries; values can stand above or below the binder they belong to.

Sequences of proteins named here, by UniProt entry; tags and fusion partners are left off. Residues count along the entry.
UniProt Q07008, residues 19-2531: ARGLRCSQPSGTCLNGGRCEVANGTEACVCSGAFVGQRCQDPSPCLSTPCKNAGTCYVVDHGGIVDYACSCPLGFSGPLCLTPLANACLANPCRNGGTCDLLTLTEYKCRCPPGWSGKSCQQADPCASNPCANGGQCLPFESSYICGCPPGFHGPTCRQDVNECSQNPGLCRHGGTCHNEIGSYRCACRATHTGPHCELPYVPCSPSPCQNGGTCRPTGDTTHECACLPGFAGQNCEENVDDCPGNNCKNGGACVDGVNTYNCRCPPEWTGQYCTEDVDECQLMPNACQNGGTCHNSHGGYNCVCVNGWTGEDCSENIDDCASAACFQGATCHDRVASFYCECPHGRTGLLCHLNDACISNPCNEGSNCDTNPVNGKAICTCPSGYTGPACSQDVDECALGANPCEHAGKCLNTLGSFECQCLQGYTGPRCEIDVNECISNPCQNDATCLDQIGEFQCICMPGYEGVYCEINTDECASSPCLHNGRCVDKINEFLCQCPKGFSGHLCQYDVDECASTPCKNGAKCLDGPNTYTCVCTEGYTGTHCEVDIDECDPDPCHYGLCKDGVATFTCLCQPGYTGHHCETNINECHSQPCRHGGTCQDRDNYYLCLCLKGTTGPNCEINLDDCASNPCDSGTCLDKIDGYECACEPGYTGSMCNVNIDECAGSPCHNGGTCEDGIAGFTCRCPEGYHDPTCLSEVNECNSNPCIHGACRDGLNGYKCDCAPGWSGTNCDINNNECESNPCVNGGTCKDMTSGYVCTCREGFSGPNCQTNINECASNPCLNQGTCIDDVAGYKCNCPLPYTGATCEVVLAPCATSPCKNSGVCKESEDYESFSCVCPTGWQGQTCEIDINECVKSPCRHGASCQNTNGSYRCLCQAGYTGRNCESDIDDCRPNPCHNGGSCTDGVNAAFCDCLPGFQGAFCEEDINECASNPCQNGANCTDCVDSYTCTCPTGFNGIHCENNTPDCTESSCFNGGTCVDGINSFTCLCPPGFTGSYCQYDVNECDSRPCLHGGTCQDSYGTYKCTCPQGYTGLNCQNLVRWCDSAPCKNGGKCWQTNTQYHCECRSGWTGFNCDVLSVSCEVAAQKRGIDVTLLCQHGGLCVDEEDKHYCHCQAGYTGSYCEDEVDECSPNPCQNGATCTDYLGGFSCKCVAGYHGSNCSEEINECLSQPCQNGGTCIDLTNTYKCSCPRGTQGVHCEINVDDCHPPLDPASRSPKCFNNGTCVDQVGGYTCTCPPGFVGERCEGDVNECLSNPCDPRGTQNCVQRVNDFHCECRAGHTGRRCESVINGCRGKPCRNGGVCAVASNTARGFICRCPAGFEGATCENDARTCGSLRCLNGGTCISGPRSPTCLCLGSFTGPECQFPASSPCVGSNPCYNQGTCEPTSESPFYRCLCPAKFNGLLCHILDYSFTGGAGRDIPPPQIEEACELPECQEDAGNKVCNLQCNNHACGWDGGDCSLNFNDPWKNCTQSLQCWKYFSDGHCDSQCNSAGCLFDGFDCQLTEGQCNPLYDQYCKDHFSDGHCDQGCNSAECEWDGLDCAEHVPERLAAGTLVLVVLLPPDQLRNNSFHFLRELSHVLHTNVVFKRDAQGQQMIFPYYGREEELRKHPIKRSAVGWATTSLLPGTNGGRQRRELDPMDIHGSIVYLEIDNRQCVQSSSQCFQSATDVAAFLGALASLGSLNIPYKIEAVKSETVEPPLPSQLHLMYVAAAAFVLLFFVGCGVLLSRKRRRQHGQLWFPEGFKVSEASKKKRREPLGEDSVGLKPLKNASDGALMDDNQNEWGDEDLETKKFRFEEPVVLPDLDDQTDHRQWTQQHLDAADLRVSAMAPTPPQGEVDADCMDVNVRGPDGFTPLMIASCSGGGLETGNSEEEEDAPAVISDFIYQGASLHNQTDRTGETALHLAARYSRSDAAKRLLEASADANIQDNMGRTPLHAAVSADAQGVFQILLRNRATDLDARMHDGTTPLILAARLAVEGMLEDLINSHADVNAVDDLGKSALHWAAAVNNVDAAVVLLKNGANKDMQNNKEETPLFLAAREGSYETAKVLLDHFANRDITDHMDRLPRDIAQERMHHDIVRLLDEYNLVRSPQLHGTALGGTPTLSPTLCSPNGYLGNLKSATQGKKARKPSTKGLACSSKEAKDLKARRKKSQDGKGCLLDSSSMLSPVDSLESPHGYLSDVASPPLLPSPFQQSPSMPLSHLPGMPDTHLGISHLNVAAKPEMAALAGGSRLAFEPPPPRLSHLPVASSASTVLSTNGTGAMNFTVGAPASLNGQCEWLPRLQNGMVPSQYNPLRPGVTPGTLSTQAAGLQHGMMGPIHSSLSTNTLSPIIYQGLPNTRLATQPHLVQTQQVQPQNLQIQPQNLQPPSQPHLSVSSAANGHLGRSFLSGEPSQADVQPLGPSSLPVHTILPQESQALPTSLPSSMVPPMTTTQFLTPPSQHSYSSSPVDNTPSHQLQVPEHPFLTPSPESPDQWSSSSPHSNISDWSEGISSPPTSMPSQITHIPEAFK
UniProt Q01705, residues 19-2531: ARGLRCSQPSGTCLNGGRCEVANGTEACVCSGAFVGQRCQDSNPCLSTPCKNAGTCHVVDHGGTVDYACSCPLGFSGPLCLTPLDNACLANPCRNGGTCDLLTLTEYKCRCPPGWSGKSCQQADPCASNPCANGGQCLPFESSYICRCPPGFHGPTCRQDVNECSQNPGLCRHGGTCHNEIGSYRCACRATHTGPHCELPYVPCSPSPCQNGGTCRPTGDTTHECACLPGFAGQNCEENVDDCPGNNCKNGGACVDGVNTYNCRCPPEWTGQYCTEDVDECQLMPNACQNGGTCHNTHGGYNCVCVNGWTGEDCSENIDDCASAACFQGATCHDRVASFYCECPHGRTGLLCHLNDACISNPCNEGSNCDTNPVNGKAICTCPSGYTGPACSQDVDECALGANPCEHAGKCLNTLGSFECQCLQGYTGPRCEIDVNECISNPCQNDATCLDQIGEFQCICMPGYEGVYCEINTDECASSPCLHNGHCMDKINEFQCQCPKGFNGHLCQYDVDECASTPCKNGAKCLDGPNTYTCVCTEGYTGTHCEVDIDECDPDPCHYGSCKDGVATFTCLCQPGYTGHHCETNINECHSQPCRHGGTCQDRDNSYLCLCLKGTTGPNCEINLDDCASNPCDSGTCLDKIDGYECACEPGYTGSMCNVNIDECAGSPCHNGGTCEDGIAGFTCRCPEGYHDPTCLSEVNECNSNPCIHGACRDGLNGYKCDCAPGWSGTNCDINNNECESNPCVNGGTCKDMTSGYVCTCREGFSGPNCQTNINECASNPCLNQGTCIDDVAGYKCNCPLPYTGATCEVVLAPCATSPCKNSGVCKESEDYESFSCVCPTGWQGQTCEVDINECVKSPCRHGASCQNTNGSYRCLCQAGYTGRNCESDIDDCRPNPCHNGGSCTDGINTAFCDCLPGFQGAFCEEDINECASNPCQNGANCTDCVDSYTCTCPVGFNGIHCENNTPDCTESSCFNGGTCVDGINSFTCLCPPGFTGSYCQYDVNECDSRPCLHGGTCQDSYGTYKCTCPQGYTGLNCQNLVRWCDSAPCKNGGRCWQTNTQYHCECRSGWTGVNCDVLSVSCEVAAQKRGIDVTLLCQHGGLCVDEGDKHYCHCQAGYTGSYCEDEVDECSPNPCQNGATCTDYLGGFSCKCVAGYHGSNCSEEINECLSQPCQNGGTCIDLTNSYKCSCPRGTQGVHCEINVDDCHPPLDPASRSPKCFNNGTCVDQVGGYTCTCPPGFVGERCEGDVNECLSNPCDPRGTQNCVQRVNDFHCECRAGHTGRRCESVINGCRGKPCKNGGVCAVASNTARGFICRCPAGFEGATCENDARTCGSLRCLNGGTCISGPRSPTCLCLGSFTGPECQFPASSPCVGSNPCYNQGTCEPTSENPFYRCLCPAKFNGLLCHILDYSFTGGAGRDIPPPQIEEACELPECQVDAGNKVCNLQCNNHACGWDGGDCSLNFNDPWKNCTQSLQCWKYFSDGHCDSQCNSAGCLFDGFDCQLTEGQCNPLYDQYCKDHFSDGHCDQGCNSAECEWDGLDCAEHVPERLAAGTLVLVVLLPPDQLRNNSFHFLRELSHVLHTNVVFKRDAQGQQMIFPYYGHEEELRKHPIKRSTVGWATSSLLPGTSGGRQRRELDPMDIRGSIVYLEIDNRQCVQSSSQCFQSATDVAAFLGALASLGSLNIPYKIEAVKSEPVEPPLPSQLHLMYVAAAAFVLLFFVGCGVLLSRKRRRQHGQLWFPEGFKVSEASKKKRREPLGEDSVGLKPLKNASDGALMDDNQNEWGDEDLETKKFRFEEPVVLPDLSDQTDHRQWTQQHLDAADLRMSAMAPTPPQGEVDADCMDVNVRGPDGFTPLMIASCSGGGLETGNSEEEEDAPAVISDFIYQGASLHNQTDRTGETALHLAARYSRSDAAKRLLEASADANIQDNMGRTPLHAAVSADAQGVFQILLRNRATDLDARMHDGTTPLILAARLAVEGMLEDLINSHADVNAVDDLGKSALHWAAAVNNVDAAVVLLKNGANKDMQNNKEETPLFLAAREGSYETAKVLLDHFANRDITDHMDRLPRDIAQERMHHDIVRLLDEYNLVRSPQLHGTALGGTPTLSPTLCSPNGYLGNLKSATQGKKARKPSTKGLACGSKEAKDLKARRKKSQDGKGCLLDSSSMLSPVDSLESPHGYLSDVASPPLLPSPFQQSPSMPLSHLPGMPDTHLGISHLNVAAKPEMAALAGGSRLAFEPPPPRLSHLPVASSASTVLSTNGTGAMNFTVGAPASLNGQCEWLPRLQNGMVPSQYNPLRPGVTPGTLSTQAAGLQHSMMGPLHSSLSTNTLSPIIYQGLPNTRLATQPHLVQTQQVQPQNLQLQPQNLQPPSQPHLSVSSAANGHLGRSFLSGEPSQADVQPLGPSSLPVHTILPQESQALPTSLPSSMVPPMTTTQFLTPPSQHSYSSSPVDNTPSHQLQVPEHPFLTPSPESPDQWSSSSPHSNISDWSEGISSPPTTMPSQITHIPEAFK

Experiments:
[1] = target: Notch2 on OLN-93 cells (rat) (UniProt Q9QW30); assay: OLN-93 cell adhesion to NB-3-His substrate with antibody blockade
[2] = target: Notch1 on OLN-93 cells (rat) (UniProt Q07008); assay: as above
[3] = target: murine Notch1 on transfected HeLa cells (mouse) (UniProt Q01705); assay: adhesion of mouse Notch1-transfected HeLa cells to NB-3-His substrate
[4] = target: Notch1 (native, rat brain) (rat) (UniProt Q07008); assay: co-immunoprecipitation from rat brain lysate (legend of FIG. 15, second printing)
[5] = target: Notch1 (native, rat brain) (rat) (UniProt Q07008); assay: co-immunoprecipitation from rat brain lysate (legend of FIG. 15)
[6] = target: Notch1 (native, rat brain) (rat) (UniProt Q07008); assay: co-immunoprecipitation from rat brain lysates (legend of FIG. 10, second printing)
[7] = target: Notch1 (native, rat brain) (rat) (UniProt Q07008); assay: co-immunoprecipitation from rat brain membrane samples with Notch1 antibody, and reciprocal assay
[8] = target: Notch1 (native, rat brain) (rat) (UniProt Q07008); assay: co-immunoprecipitation from rat brain lysates (legend of FIG. 10)
[9] = target: Notch1 (native, rat brain) (rat) (UniProt Q07008); assay: co-immunoprecipitation from rat brain membrane preparations in 2% Triton X-100
[10] = target: Notch1 (native, rat brain) (rat) (UniProt Q07008); assay: co-immunoprecipitation from rat brain lysates (legend of FIG. 23, second printing)
[11] = target: Notch1 (native, rat brain) (rat) (UniProt Q07008); assay: co-immunoprecipitation from P0 rat brain membrane extracts
[12] = target: Notch1 (native, rat brain) (rat) (UniProt Q07008); assay: co-immunoprecipitation from adult rat brain membrane extracts
[13] = target: Notch1 (native, rat brain) (rat) (UniProt Q07008); assay: co-immunoprecipitation from rat brain lysates (legend of FIG. 23)
[14] = target: T1, F3/contactin (native, rat brain) (rat) (UniProt Q63198); assay: co-immunoprecipitation from adult rat brain membrane extracts, Western blot
T1 sequence (looked up): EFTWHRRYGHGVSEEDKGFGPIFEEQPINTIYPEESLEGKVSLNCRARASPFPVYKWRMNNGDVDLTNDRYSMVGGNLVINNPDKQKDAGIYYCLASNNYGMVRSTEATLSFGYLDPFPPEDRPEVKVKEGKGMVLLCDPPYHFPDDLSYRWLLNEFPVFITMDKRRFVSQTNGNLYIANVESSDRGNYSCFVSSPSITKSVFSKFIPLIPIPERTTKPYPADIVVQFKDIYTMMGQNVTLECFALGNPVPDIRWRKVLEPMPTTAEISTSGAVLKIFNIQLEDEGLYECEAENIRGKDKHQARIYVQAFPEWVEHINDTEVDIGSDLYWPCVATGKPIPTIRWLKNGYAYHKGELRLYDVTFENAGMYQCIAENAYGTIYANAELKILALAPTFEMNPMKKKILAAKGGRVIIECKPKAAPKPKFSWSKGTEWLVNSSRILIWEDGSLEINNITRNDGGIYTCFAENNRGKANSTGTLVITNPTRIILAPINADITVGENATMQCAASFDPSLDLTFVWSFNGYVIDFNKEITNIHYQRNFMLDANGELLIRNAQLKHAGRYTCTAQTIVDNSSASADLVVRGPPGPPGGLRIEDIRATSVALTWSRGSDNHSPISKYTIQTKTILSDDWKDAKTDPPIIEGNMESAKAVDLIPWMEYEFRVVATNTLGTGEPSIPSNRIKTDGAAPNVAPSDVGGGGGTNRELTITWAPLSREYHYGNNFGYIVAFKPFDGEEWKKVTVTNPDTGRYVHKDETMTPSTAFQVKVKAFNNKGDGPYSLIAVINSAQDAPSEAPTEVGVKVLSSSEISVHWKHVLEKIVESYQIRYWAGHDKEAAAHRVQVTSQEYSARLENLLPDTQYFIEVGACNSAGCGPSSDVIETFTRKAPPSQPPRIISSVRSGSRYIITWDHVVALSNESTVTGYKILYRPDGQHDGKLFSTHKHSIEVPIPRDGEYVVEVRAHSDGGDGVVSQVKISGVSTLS

binding [1]: binds
binding [2]: binds
binding [3]: binds
B1: NB-3-His (ligand, rat)
chain: ESRFTRPIFIQEPQDVIFPLDLSRSEIILSCTASGYPSPHYRWKQNGTDIDFSMTYHYRLDGGSLAISSPRTDQDIGIYQCLATNPVGTILSRKAKLQFAYIEDFETKSRSTVSVREGQGVVLLCGPPPHFGELSYDWTFNDNPLYVQEDKRRFVSQNTGNLYIAKVEPSDVGNYTCFVTNKEAHRSVQGPPTPLVQRTDGVMGEYEPKIEVRFPETIQAAKDSSVKLECFALGNPVPDISWRRLDGSPMPGKVKYSNSQATLEIPKFQQEDEGFYECVAGNLRGRNLAKGQLIFYAPPEWEQKIQNTYLSIYDSLFWECKASGNPNPSYTWLKNGERLNTEERIQTENGTLIITMLNVSDSGIYQCAAENKYQTIYANAELRVLASAPDFSKNPIKKISVVQVGGDISIECKPNAFPKASISWKRGTENLKQSKRVFFLEDGSLKICNVTRSDAGSYTCVATNQFGNGKSSGSLIVKERTVITVPPSKMDVTVGESIVLPCQVSHDPTMEVLFVWYFNGDVIDLKKGVAHFERIGGESVGDLMIRNIQLGHSGKYLCTVQTTLERLSAVADIIVRGPPGPPEDVKVEHISSTTSQLSWRPGPDNNSPIQIFTIQTRTPFSVGWQAVATVPEILNGQTYNATVIGLSPWVEYEFRVVAGNNIGIGEPSKPSELLRTKASIPNVAPVNINGGGGSRSELVITWEPIPEELQNGEGFGYIIMFRPVGSTTWMKEKVALVESSKFIYRNESIMPLSPFEVKVGVYNNEGEGSLSTVSIVYSGEDEPRLAPRGTSVQSFSASDMEVSWNAIAWNRNTGRVLGYEVLYWTDNSKESMIGKIRVSGNVTTKNITGLRANTIYFASVRAYNTAGTGPSSPPVNVTTKKSPPSQPPANIAWKLSNSKLCLNWEHVKTMENESEVLGYKILYRQNRQSKTHVLETNNTSAELLVPFEEDYLIEIRTVSDGGDGSSSEEIRIPKMSSLSSHHHHHH

binding [4]: binds
binding [5]: binds
binding [6]: binds
binding [7]: binds
binding [8]: binds
binding [9]: binds
B2: F3/contactin (native, rat brain) (ligand, UniProt Q63198 21-1001, looked up)
chain: EFTWHRRYGHGVSEEDKGFGPIFEEQPINTIYPEESLEGKVSLNCRARASPFPVYKWRMNNGDVDLTNDRYSMVGGNLVINNPDKQKDAGIYYCLASNNYGMVRSTEATLSFGYLDPFPPEDRPEVKVKEGKGMVLLCDPPYHFPDDLSYRWLLNEFPVFITMDKRRFVSQTNGNLYIANVESSDRGNYSCFVSSPSITKSVFSKFIPLIPIPERTTKPYPADIVVQFKDIYTMMGQNVTLECFALGNPVPDIRWRKVLEPMPTTAEISTSGAVLKIFNIQLEDEGLYECEAENIRGKDKHQARIYVQAFPEWVEHINDTEVDIGSDLYWPCVATGKPIPTIRWLKNGYAYHKGELRLYDVTFENAGMYQCIAENAYGTIYANAELKILALAPTFEMNPMKKKILAAKGGRVIIECKPKAAPKPKFSWSKGTEWLVNSSRILIWEDGSLEINNITRNDGGIYTCFAENNRGKANSTGTLVITNPTRIILAPINADITVGENATMQCAASFDPSLDLTFVWSFNGYVIDFNKEITNIHYQRNFMLDANGELLIRNAQLKHAGRYTCTAQTIVDNSSASADLVVRGPPGPPGGLRIEDIRATSVALTWSRGSDNHSPISKYTIQTKTILSDDWKDAKTDPPIIEGNMESAKAVDLIPWMEYEFRVVATNTLGTGEPSIPSNRIKTDGAAPNVAPSDVGGGGGTNRELTITWAPLSREYHYGNNFGYIVAFKPFDGEEWKKVTVTNPDTGRYVHKDETMTPSTAFQVKVKAFNNKGDGPYSLIAVINSAQDAPSEAPTEVGVKVLSSSEISVHWKHVLEKIVESYQIRYWAGHDKEAAAHRVQVTSQEYSARLENLLPDTQYFIEVGACNSAGCGPSSDVIETFTRKAPPSQPPRIISSVRSGSRYIITWDHVVALSNESTVTGYKILYRPDGQHDGKLFSTHKHSIEVPIPRDGEYVVEVRAHSDGGDGVVSQVKISGVSTLS

binding [6]: binds
binding [10]: binds
binding [11]: binds
binding [12]: binds
binding [13]: binds
binding [8]: binds
binding [9]: binds
B3: NB-3 (native, rat brain) (ligand, UniProt P97528 20-999, looked up)
chain: ESRFTRPIFIQEPQDVIFPLDLSRSEIILSCTASGYPSPHYRWKQNGTDIDFSMTYHYRLDGGSLAISSPRTDQDIGIYQCLATNPVGTILSRKAKLQFAYIEDFETKSRSTVSVREGQGVVLLCGPPPHFGELSYDWTFNDNPLYVQEDKRRFVSQNTGNLYIAKVEPSDVGNYTCFVTNKEAHRSVQGPPTPLVQRTDGVMGEYEPKIEVRFPETIQAAKDSSVKLECFALGNPVPDISWRRLDGSPMPGKVKYSNSQATLEIPKFQQEDEGFYECVAGNLRGRNLAKGQLIFYAPPEWEQKIQNTYLSIYDSLFWECKASGNPNPSYTWLKNGERLNTEERIQTENGTLIITMLNVSDSGIYQCAAENKYQTIYANAELRVLASAPDFSKNPIKKISVVQVGGDISIECKPNAFPKASISWKRGTENLKQSKRVFFLEDGSLKICNVTRSDAGSYTCVATNQFGNGKSSGSLIVKERTVITVPPSKMDVTVGESIVLPCQVSHDPTMEVLFVWYFNGDVIDLKKGVAHFERIGGESVGDLMIRNIQLGHSGKYLCTVQTTLERLSAVADIIVRGPPGPPEDVKVEHISSTTSQLSWRPGPDNNSPIQIFTIQTRTPFSVGWQAVATVPEILNGQTYNATVIGLSPWVEYEFRVVAGNNIGIGEPSKPSELLRTKASIPNVAPVNINGGGGSRSELVITWEPIPEELQNGEGFGYIIMFRPVGSTTWMKEKVALVESSKFIYRNESIMPLSPFEVKVGVYNNEGEGSLSTVSIVYSGEDEPRLAPRGTSVQSFSASDMEVSWNAIAWNRNTGRVLGYEVLYWTDNSKESMIGKIRVSGNVTTKNITGLRANTIYFASVRAYNTAGTGPSSPPVNVTTKKSPPSQPPANIAWKLSNSKLCLNWEHVKTMENESEVLGYKILYRQNRQSKTHVLETNNTSAELLVPFEEDYLIEIRTVSDGGDGSSSEEIRIPKMSSLSS

binding [14]: binds
B4: Caspr (native, adult rat brain membrane extracts) (receptor, UniProt P97846 21-1381, looked up)
chain: WGYYGCNEELVGPLYARSLGASSYYGLFTTARFARLHGISGWSPRIGDPNPWLQIDLMKKHRIRAVATQGAFNSWDWVTRYMLLYGDRVDSWTPFYQQGHNATFFGNVNDSAVVRHDLHYHFTARYIRIVPLAWNPRGKIGLRLGIYGCPYTSNILYFDGDDAISYRFQRGASQSLWDVFAFSFKTEEKDGLLLHTEGSQGDYVTLELQGAHLLLHMSLGSSPIQPRPGHTTVSAGGVLNDLSWHYVRVDRYGREANLTLDGYVHRFVLNGDFERLNLENEIFIGGLVGAARKNLAYRHNFRGCIENVIYNRINIAEMAVQRHSRITFEGNVAFRCLDPVPHPINFGGPHNFVQVPGFPRRGRLAVSFRFRTWDLTGLLLFSRLGDGLGHVELMLSEGQVNVSIAQTGRKKLQFAAGYRLNDGFWHEVNFVAQENHAVISIDDVEGAEVRVSYPLLIRTGTSYFFGGCPKPASRWGCHSNQTAFHGCMELLKVDGQLVNLTLVEFRKLGYFAEVLFDTCGITDRCSPNMCEHDGRCYQSWDDFICYCELTGYKGVTCHEPLYKESCEAYRLSGKYSGNYTIDPDGSGPLKPFVVYCDIRENRAWTVVRHDRLWTTRVTGSSMDRPFLGAIQYWNASWEEVSALANASQHCEQWIEFSCYNSRLLNTAGGYPYSFWIGRNEEQHFYWGGSQPGIQRCACGLDQSCIDPALHCNCDADQPQWRTDKGLLTFVDHLPVTQVVIGDTNRSSSEAQFFLRPLRCYGDRNSWNTISFRTGAALRFPPIRANHSLDVSFYFRTSAPSGVFLENMGGPFCQWRRPYVRVELNTSRDVVFAFDIGNGDENLTVHSDDFEFNDDEWHLVRAEINVKQARLRVDHRPWVLRPMPLQTYIWLEYDQPLYVGSAELKRRPFVGCLRAMRLNGVTLNLEGRANASEGTFPNCTGHCTHPRFPCFHGGRCVERYSYYTCDCDLTAFDGPYCNHDIGGFFETGTWMRYNLQSALRSAAQEFSHMLSRPVPGYEPGYIPGYDTPGYVPGYHGPGYRLPDYPRPGRPVPGYRGPVYNVTGEEVSFSFSTSSAPAVLLYVSSFVRDYMAVLIKEDGTLQLRYQLGTSPYVYQLTTRPVTDGQPHSVNITRVYRNLFIQVDYFPLTEQKFSLLVDSQLDSPKALYLGRVMETGVIDPEIQRYNTPGFSGCLSGVRFNNVAPLKTHFRTPRPMTAELAEAMRVQGELSESNCGAMPRLVSEVPPELDPWYLPPDFPYYHDDGWIAILLGFLVAFLLLGLVGMLVLFYLQNHRYKGSYHTNEPKATHDSHPGGKAPLPPSGPAQAPAPTPAPTQVPTPAPAPASGPGPRDQNLPQILEESRSE
